According to article PMC4889105:
Results are given in words; binding and its absence hold for the method and conditions named. For part of these data: Binding seen in cells or lysates may run through a third protein. Some results given as binding are weak or reduced against the parent protein; the word gives no strength. Blank lines part the entries; values can stand above or below the substance they belong to.

By UniProt entry, the sequences of proteins in these tests, tags left out.
UniProt P0ABQ4: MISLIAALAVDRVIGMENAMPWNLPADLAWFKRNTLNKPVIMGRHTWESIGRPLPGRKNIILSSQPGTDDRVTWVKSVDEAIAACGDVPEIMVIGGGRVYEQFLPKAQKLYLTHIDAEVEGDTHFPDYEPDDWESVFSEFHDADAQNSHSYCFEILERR

How the values were obtained:
[1] = biological target: biotinylated dihydrofolate reductase (UniProt P0ABQ4); assay: condition: 0.75 μL of each crude translation mixture; AlphaScreen or HTRF; model assay: 0.75 μL crude biotinylated protein and 0.75 μL crude FLAG-protein, 100 mM Tris-HCl pH 7.5, 1 mg/mL BSA, 0.1% Tween 20, 100 mM NaCl, 26°C 1 h; streptavidin donor beads, anti-DYKDDDDK antibody with protein A acceptor beads, 23°C 1 h; 384-well
[2] = biological target: biotinylated p53 (wild type) (UniProt P04637); assay: AlphaScreen or HTRF; screen of the E3 protein array (258 FLAG-E3s, crude) against biotinylated p53 as bait, conditions as in the model assay, robotic dispensing; signal with p53 divided by signal with biotinylated DHFR; hits: relative value higher than 8
[3] = biological target: biotinylated p53 (wild type) (UniProt P04637); assay: AlphaScreen or HTRF; fixed amount of biotinylated p53 (0.75 μl) mixed with 0.25 to 3.0 μl of crude FLAG-E3s, same procedure as Fig 3A
[4] = biological target: biotinylated p53 (wild type) (UniProt P04637); assay: AlphaScreen or HTRF; model assay: 0.75 μL crude biotinylated protein and 0.75 μL crude FLAG-protein, 100 mM Tris-HCl pH 7.5, 1 mg/mL BSA, 0.1% Tween 20, 100 mM NaCl, 26°C 1 h; streptavidin donor beads, anti-DYKDDDDK antibody with protein A acceptor beads, 23°C 1 h; 384-well
[5] = biological target: biotinylated p53 (wild type) (UniProt P04637); assay: condition: 0.75 μL of each crude translation mixture; AlphaScreen or HTRF; model assay: 0.75 μL crude biotinylated protein and 0.75 μL crude FLAG-protein, 100 mM Tris-HCl pH 7.5, 1 mg/mL BSA, 0.1% Tween 20, 100 mM NaCl, 26°C 1 h; streptavidin donor beads, anti-DYKDDDDK antibody with protein A acceptor beads, 23°C 1 h; 384-well
[6] = biological target: FLAG-MDM2 (wild type) (mouse) (UniProt P23804); assay: co-IP; crude biotinylated p53 and crude FLAG-MDM2 from the wheat cell-free system mixed, 150 mM NaCl, 26°C 1 h; precipitated with anti-DYKDDDDK antibody on Protein G Dynabeads, eluted with DYKDDDDK peptide; blot with anti-FLAG and anti-biotin antibodies

binding [1]: no binding | binding [2]: binds | binding [3]: binds | binding [4]: binds
Substance: FLAG-MDM2 (wild type) (from UniProt P23804 1-489) (enzyme)

binding [5]: no binding
Substance: FLAG-dihydrofolate reductase (from UniProt P0ABQ4 1-159) (enzyme)

binding [6]: binds
Substance: biotinylated p53 (wild type) (from UniProt P04637 1-393)
